From patent US20230203162A1 come the findings set out here.

Protein sequences, listed by entry. Tags and fused reporters are not part of them. Lines headed by an entry give the natural chain unless they say otherwise; changes in a name come on top. Chains listed by the source or under a name are the forms on record and can include a tag or linker.
recombinant human MSLN (purchased from Peprotech) (Q13421, form named): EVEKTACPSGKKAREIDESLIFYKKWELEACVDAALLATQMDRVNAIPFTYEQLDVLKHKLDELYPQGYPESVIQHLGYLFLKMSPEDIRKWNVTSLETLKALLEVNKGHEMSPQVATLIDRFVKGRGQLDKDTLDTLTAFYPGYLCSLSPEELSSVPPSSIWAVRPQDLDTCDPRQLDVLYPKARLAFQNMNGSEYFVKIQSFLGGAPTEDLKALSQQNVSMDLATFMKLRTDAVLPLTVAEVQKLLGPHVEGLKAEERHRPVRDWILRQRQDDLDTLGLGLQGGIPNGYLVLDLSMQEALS

The target in the assay is recombinant human MSLN (purchased from Peprotech) (human) (UniProt Q13421). Kind of assay: SPR. (In SPR one partner is held on a chip, and binding of the other changes the refractive index at the surface.)

These are yes or no findings as the source states them, for the method shown. Some binding calls cover weakened binding; strength is not graded here.

B1: anti-MSLN scFv PRO1925 (scFv)
scFv: ALQMTQSPSSLSASVGDRVTITCQASQSISNYLAWYQQKPGKPPKFLIYDASDLASGVSSRFSGSGSGTDFTLTISSLQPEDFATYYCQQVYDSNNVENVFGTGTKVTVLGGGGGSGGGGSGGGGSGGGGSQSQLVESGGGLVQPGGSLRLSCAVSGFSLSSYAMGWVRQAPGKGLEYIGYISKIGTTYYASWAKGRFTISKDNSKNTVYLQMNSLRAEDTAVYFCARGSSSGGYLDDGFDPWGQGTLVTVSS
With B1, the binding result is “binds”.

B2: anti-MSLN scFv PRO2309 (scFv)
scFv: ALQMTQSPSSLSARVGDRVTIKCQASQSISNYLAWYQQKPGKPPKFLIYDASDLASGVPSRFSGSGSGRDFTLTISSLQPEDFATYYCQQVYDSNNVENVFGCGTKVTVLGGGGGSGGGGSGGGGSGGGGSQSQLVESGGGLVQPGGSLRLSCAVSGFSLSSYAMGWVRQAPGKCLEYIGYISKIGTTYYASWAKGRFTISKDNSKNTVYLQMNSLRAEDTAVYFCARGSSSGGYLDDGFDPWGQGTLVTVSS
Consider B2, for which the binding result is “binds”.

B3: anti-MSLN scFv PRO2306 (scFv)
scFv: ALQMTQSPSSLSARVGDRVTIKCQASQSISNYLAWYQQKPGKPPKFLIYDASDLASGVPSRFSGSGSGRDFTLTISSLQPEDFATYYCQQVYDSNNVENVFGTGTKVTVLGGGGGSGGGGSGGGGSGGGGSQSQLVESGGGLVQPGGSLRLSCAVSGFSLSSYAMGWVRQAPGKGLEYIGYISKIGTTYYASWAKGRFTISKDNSKNTVYLQMNSLRAEDTAVYFCARGSSSGGYLDDGFDPWGQGTLVTVSS
Regarding B3, the binding result was “binds”.

B4: anti-MSLN scFv PRO1783 (scFv)
scFv: DIQMTQSPSSLSASVGDRVTITCQASQNIYSNLAWYQQKPGKAPKLLIYDASDLASGVPSRFSGSGSGTDFTLTISSLQPEDFATYYCQQVRSSSDIDNPFGTGTKVTVLGGGGGSGGGGSGGGGSGGGGSQVQLVESGGGLVQPGGSLRLSCAASGFSLSSYAMGWVRQAPGKGLEWIGYISTINNTYYASWAKGRFTISRDNSKNTVYLQMNSLRAEDTAVYYCAREIRSGWVDYGFSIWGQGTLVTVSS
Take B4: the binding result was “binds”.

B5: PRO2566 (MATCH4) (protein)
chain 1: AFELTQSPSSLSASVGDRVTITCQASESINSRLAWYQQKPGQPPKLLIYDASDLTSGVPSRFSGSGSGTDFTLTISSLQPEDFATYYCQGYGGSSTTTFGTGTKLTVLGGGGGSGGGGSGGGGSGGGGSEVQLVESGGGLVQPGGSLRLSCAASGFSLSSYAMNWVRQAPGKGLEWIGHINAGDIAYYATWAKGRFTISRDNSKNTVYLQMNSLRAEDTAVYFCARGAGGFSTGPFKLWGQGTLVTVSSGGGGSGGGGSEVQLVESGGGLVQPGGSLRLSCAASGFSLSSYDMSWVRQAPGKGLAWIGASYASGPTYYASWAKGRFTISRDNSKNTVYLQMNSLRAEDTATYFCARGGWTGTSHSNIWGQGTLVTVSSGGGSGGGSGGGSGQSQLVESGGGLVQPGGSLRLSCAVSGFSLSSYAMGWVRQAPGKCLEYIGYISKIGTTYYASWAKGRFTISKDNSKNTVYLQMNSLRAEDTAVYFCARGSSSGGYLDDGFDPWGQGTLVTVSS
chain 2: ALQMTQSPSSLSARVGDRVTIKCQASQSISNYLAWYQQKPGKPPKFLIYDASDLASGVPSRFSGSGSGRDFTLTISSLQPEDFATYYCQQVYDSNNVENVFGCGTKVTVLGGGGGSGGGGSGGGGSGGGGSQSQLVESGGGLVQPGGSLRLSCAVSGFSLSSYAMGWVRQAPGKCLEYIGYISKIGTTYYASWAKGRFTISKDNSKNTVYLQMNSLRAEDTAVYFCARGSSSGGYLDDGFDPWGQGTLVTVSSGGGGSGGGGSALQMTQSPSSLSARVGDRVTIKCQASQSISNYLAWYQQKPGKPPKFLIYDASDLASGVPSRFSGSGSGRDFTLTISSLQPEDFATYYCQQVYDSNNVENVFGCGTKVTVLGGGSGGSGGSGGSGDIQMTQSPSSLSASVGDRVTITCQSSQSVFSNNYLAWFQQKPGQSPKRLIYSASTLASGVPSRFSGSGSGTDFTLTISSLQPEDFATYYCLGSYACSSADCYVFGTGTKVTVLG
In the case of B5, the binding result is listed as “binds”.

B6: PRO2562 (MATCH4) (protein)
chain 1: ALQMTQSPSSLSARVGDRVTIKCQASQSISNYLAWYQQKPGKPPKFLIYDASDLASGVPSRFSGSGSGRDFTLTISSLQPEDFATYYCQQVYDSNNVENVFGCGTKVTVLGGGGGSGGGGSGGGGSGGGGSQSQLVESGGGLVQPGGSLRLSCAVSGFSLSSYAMGWVRQAPGKCLEYIGYISKIGTTYYASWAKGRFTISKDNSKNTVYLQMNSLRAEDTAVYFCARGSSSGGYLDDGFDPWGQGTLVTVSSGGGGSGGGGSEVQLVESGGGLVQPGGSLRLSCAASGFSLSSYDMSWVRQAPGKGLAWIGASYASGPTYYASWAKGRFTISRDNSKNTVYLQMCSLRAEDTATYFCARGGWTGTSHSNIWGQGTLVTVSSGGGSGGGSGGGSGEVQLVESGGGLVQPGGSLRLSCAASGFSLSSYAMNWVRQAPGKCLEWIGHINAGDIAYYATWAKGRFTISRDNSKNTVYLQMNSLRAEDTAVYFCARGAGGFSTGPFKLWGQGTLVTVSS
chain 2: ALQMTQSPSSLSARVGDRVTIKCQASQSISNYLAWYQQKPGKPPKFLIYDASDLASGVPSRFSGSGSGRDFTLTISSLQPEDFATYYCQQVYDSNNVENVFGCGTKVTVLGGGGGSGGGGSGGGGSGGGGSQSQLVESGGGLVQPGGSLRLSCAVSGFSLSSYAMGWVRQAPGKCLEYIGYISKIGTTYYASWAKGRFTISKDNSKNTVYLQMNSLRAEDTAVYFCARGSSSGGYLDDGFDPWGQGTLVTVSSGGGGSGGGGSAFELTQSPSSLSASVGDRVTITCQASESINSRLAWYQQKPGQPPKLLIYDASDLTSGVPSRFSGSGSGTDFTLTISCLQPEDFATYYCQGYGGSSTTTFGCGTKLTVLGGGSGGSGGSGGSGDIQMTQSPSSLSASVGDRVTITCQSSQSVFSNNYLAWFQQKPGQSPKRLIYSASTLASGVPSRFSGSGSGTDFTLTISSLQPEDFATYYCLGSYACSSADCYVFGTGTKVTVLG
Turning to B6, the binding result is “binds”.

B7: reference anti-MSLN scFv PRO1795 (scFv)
scFv: DIQMTQSPSSLSASVGDRVTITCQASESIGNYLAWYQQKPGKAPKLLIYSASTLASGVPSRFSGSGSGTDFTLTISSLQPEDFATYYCQSTDYGDSYIFGTGTKVTVLGGGGGSGGGGSGGGGSGGGGSEVQLVESGGGLVQPGGSLRLSCAASGISVSNDYYMCWVRQAPGKGLEWIGCISTYIGNTHYASWAKGRFTISRDNSKNTVYLQMNSLRAEDTAVYYCAKNAGYPGYRYAIDLWGQGTLVTVSS
Consider B7, for which the binding result is “binds”.

B8: PRO2000 (MATCH4, biMSLNhigh KD×CD3×hSA) (protein)
chain 1: DIQMTQSPSSLSASVGDRVTITCQASQNIYSNLAWYQQKPGKAPKLLIYDASDLASGVPSRFSGSGSGTDFTLTISSLQPEDFATYYCQQVRSSSDIDNPFGTGTKVTVLGGGGGSGGGGSGGGGSGGGGSQVQLVESGGGLVQPGGSLRLSCAASGFSLSSYAMGWVRQAPGKGLEWIGYISTINNTYYASWAKGRFTISRDNSKNTVYLQMNSLRAEDTAVYYCAREIRSGWVDYGFSIWGQGTLVTVSSGGGGSGGGGSEVQLVESGGGLVQPGGSLRLSCAASGFSLSSYDMSWVRQAPGKGLAWIGASYASGPTYYASWAKGRFTISRDNSKNTVYLQMNSLRAEDTATYFCARGGWTGTSHSNIWGQGTLVTVSSGGGSGGGSEVQLVESGGGLVQPGGSLRLSCAASGFSFSSSYWICWVRQAPGKCLEWVGCVFTGDGTTYYASWAKGRFTISRDNSKNTVYLQMNSLRAEDTATYFCARPVSVYYYGMDLWGQGTLVTVSS
chain 2: DIQMTQSPSSLSASVGDRVTITCQASQNIYSNLAWYQQKPGKAPKLLIYDASDLASGVPSRFSGSGSGTDFTLTISSLQPEDFATYYCQQVRSSSDIDNPFGTGTKVTVLGGGGGSGGGGSGGGGSGGGGSQVQLVESGGGLVQPGGSLRLSCAASGFSLSSYAMGWVRQAPGKGLEWIGYISTINNTYYASWAKGRFTISRDNSKNTVYLQMNSLRAEDTAVYYCAREIRSGWVDYGFSIWGQGTLVTVSSGGGGSGGGGSDVVMTQSPSSLSASVGDRVTITCQASQIISSRSAWYQQKPGQPPKLLIYQASKLASGVPSRFSGSGSGTDFTLTISSLQPEDFATYYCQCTYIDSNFGAFGCGTKLTVLGGGSGGSDIQMTQSPSSLSASVGDRVTITCQSSQSVFSNNYLAWFQQKPGQSPKRLIYSASTLASGVPSRFSGSGSGTDFTLTISSLQPEDFATYYCLGSYACSSADCYVFGTGTKVTVLG
Take B8: the binding entry is “binds”.

B9: PRO1872 (scMATCH3, MSLNlow KD×CD3×hSA) (protein)
chain: DVVMTQSPSSLSASVGDRVTITCQASQIISSRSAWYQQKPGQPPKLLIYQASKLASGVPSRFSGSGSGTDFTLTISSLQPEDFATYYCQCTYIDSNFGAFGCGTKLTVLGGGGGSEVQLVESGGGLVQPGGSLRLSCAASGFSLSSYDMSWVRQAPGKGLAWIGASYASGPTYYASWAKGRFTISRDNSKNTVYLQMNSLRAEDTATYFCARGGWTGTSHSNIWGQGTLVTVSSGGGGSGGGGSGGGGSGGGGSDIQMTQSPSSLSASVGDRVTITCQSSQSVFSNNYLAWFQQKPGQSPKRLIYSASTLASGVPSRFSGSGSGTDFTLTISSLQPEDFATYYCLGSYACSSADCYVFGTGTKVTVLGGGGGSEVQLVESGGGLVQPGGSLRLSCAASGFSFSSSYWICWVRQAPGKCLEWVGCVFTGDGTTYYASWAKGRFTISRDNSKNTVYLQMNSLRAEDTATYFCARPVSVYYYGMDLWGQGTLVTVSSGGGGSGGGGSDIQMTQSPSSLSASVGDRVTITCQASESIGNYLAWYQQKPGKAPKLLIYSASTLASGVPSRFSGSGSGTDFTLTISSLQPEDFATYYCQSTDYGDSYIFGTGTKVTVLGGGGGSGGGGSGGGGSGGGGSEVQLVESGGGLVQPGGSLRLSCAASGISVSNDYYMCWVRQAPGKGLEWIGCISTYIGNTHYASWAKGRFTISRDNSKNTVYLQMNSLRAEDTAVYYCAKNAGYPGYRYAIDLWGQGTLVTVSS
As to B9, the binding entry is “binds”.

B10: anti-MSLN scFv PRO1922 (scFv)
scFv: DIQMTQSPSSLSASVGDRVTITCQASESIYSSLAWYQQKPGKAPKLLIYLASTLASGVPSRFSGSGSGTDFTLTISSLQPEDFATYYCQSTDYTTSTHRNSFGTGTKVTVLGGGGGSGGGGSGGGGSGGGGSEVQLVESGGGLVQPGGSLRLSCAASGFSFSTTYYMCWVRQAPGKGLEWIGCTNTASSVRTYYATWAKGRFTISRDNSKNTVYLQMNSLRAEDTAVYYCARDMGFADYALNLWGQGTLVTVSS
As for B10, the binding result is “binds”.
